# The supplement of paper PMC10338343
# ± gives the standard deviation. This is a selection; strong and weak results do not stand in their true shares. The uncertainty is large for many entries.
# Legend:
# [1] = tested on: MILI (PIWIL2) piRISC loaded with L1MC piRNA (26 nt); test: pre-steady-state target cleavage rate (min^-1); MIWI and MILI are mouse PIWI proteins and EfPiwi is from a freshwater sponge; tags in brackets are library labels; higher = faster piRNA-guided slicing of the target; settings: guide: L1MC piRNA 5'p-UAACUAAAUACUAUGCAAGCUGUAGG
# In short: (§1)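 A transcribed, DNA-blocked target RNA library […] was incubated at 33 °C for 0–8 or 0–960 min with 1 nM active affinity-purified piRISC carrying one synthetic guide, in HEPES–potassium acetate buffer with or without 500 nM GTSF1 partner protein. Uncleaved targets were then sequenced and normalised to depth and to weakly complementary targets. Data from three trials were pooled, with k3 capped at 0.0001 min^-1, and a burst-and-steady-state fit yielded the pre-steady-state cleavage rate.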
# [2] = tested on: MIWI (PIWIL1) piRISC loaded with L1MC piRNA (30 nt); test: as above; settings: guide: L1MC piRNA 5'p-UAACUAAAUACUAUGCAAGCUGUAGGUCCU
# In short: as §1
# [3] = auxiliary factor: none (no GTSF1)
# [4] = auxiliary factor: 500 nM mouse GTSF1
# 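Note: 1 nM active piRISC with 0.1 nM target library at 33 °C single turnover.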
Sequence,"pre-steady-state target cleavage rate [1, 3]","pre-steady-state target cleavage rate [2, 3]","pre-steady-state target cleavage rate [1, 4]","pre-steady-state target cleavage rate [2, 4]"
UCCUGGAUGUCCUUGCAUAGUAAUUACUUA,0.000798 ± 0.0083,0.00142 ± 0.0065,–,–
UCCUGGAUGUCCUUGCAUUCAUAAAUCAAA [g13:g19:cont:t1A],0.000444 ± 0.0089,0.000622 ± 0.0084,–,–
UCCUGGAUGUCGUUCAUAGUAUUUAGUUA,0.00207 ± 0.0026,0.000819 ± 0.0082,–,–
UCCUGGAUGUGCUUGCAUAGUUAAUAGUAA,0.000737 ± 0.0087,0.00101 ± 0.0078,–,–
UCCUGGAUCAGCAAGCAUAGUAUUUAGAAA,0.00136 ± 0.0051,0.00135 ± 0.0049,–,–
UCCUGGAUGUCCUUGCAUAGUUUUUACUUA,0.000977 ± 0.0062,0.00111 ± 0.0051,–,–
UCCUGGAUGUCGAACGUAUCUUUUUAGUAA,–,–,0.000184 ± 0.027,0.000106 ± 0.047
UCCUGGAUGUCGUUGCAUAGUAAUAAGUUA,0.00272 ± 0.0028,0.00032 ± 0.017,–,–
UCCUGGAUGUCGAACGUAUGCAUUUAGUUA,0.000265 ± 0.013,0.000369 ± 0.011,–,–
UCCUGGAUGUCCUUGCAUAGUUAAAUCAAA [g10:g19:cont:t1A],0.00044 ± 0.011,0.000635 ± 0.011,–,–
UCCUGGAACAGCUUGCAUAGUAUAAACAAA,0.00114 ± 0.0053,0.00201 ± 0.0042,–,–
UCCUGGAUGUCGAUGCAUAGUAUUUUCAAA [g6:g17:cont:t1A],0.000486 ± 0.0068,0.000381 ± 0.014,–,–
UCCUGCUACAGCUUGCAUACAUUUUUCAAA,0.000652 ± 0.0065,0.000214 ± 0.018,–,–
UCCUGGAUGUCCUUGGUUAGUAUUUAGUAA,0.00239 ± 0.003,0.0012 ± 0.006,–,–
UCCUGGAUGUCGAACGUUAUAUUUAGUUA,0.000168 ± 0.025,0.000325 ± 0.021,–,–
